# Experimental data reported in PubChem BioAssay AID1347075 (National Center for Advancing Translational Sciences (NCATS), 2019).
# Among all 400,000 compounds or so, about 5,500 (1.4%) were called active. The inconclusive results got no clear call from the source; some entries with a clear call stand among them for comparison. Calls come from the whole dose curve; as a rule, active = well fitted cell-killing curve with a large enough effect; inconclusive = small, poorly fitted or top-dose-only effect, or effect the other way; inactive = flat fitted curve, though single readings scatter. Potencies beside an inconclusive call are fits to weak or partial responses and may not hold up.
# Test: qHTS assay for MDR1-selective chemotherapeutics: Primary screen using the parental adenocarcinoma cell KB-3-1; note: nearly all actives have a fitted effect of over 60% in size
# Details: KB-3-1 viability, CellTiter-Glo ATP luminescence, 72 h; activity change, negative = cytotoxic: at 46.1 µM (top of the series)
# Outline: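 Luminescent ATP read-out (CellTiter-Glo) measures survival of drug-naive KB-3-1 cells after 72 h compound exposure at 37 °C. Titration series was screened from lowest to highest concentration, with DMSO vehicle plates as background controls.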
# % is set by controls: 0 for no effect and ±100 for the full control effect; potency is the fitted concentration of half-maximal effect.
SMILES,Potency,"activity change, negative = cytotoxic"
O=C(N/N=C/c1ccc(O)cc1O)C(=O)N/N=C/c1ccc(O)cc1O,"inconclusive: 6.51 µM [cytotoxic, partial curve]",–
CCN(Cc1ccccc1)C(=O)Cn1c(=O)n(Cc2ccccc2)c(=O)c2c1c1cc(OC)ccc1n2C,–,inactive: 1.97%
CCn1c(SCC(=O)Nc2ccc3c(c2)oc2ccccc23)nnc1-c1ccc(N)cc1,"inconclusive: 18.4 µM [cytotoxic, single point]",–
CCOC(=O)[C@]12CCC=C1N(Cc1cccc3ccccc13)C(=O)[C@H](CC(=O)N1CCN(C(=O)c3ccco3)CC1)C2,"inconclusive: 29.1 µM [cytotoxic, single point]",–
O=C(COC(=O)CCCNC(=O)c1ccc(Cl)cc1)Nc1cc(Cl)c(Cl)cc1Cl,–,inconclusive: 0%
Cc1ccc(-c2nn(-c3ccccc3)cc2/C=N/O)cc1,"inconclusive: 29.1 µM [cytotoxic, single point]",–
CC(C)c1ccc(S(=O)(=O)c2nnn3c2nc(NC2CCCC2)c2sccc23)cc1,–,inactive: 2.45%
O=C(OCCN=C1NS(=O)(=O)c2ccccc21)c1cccc([N+](=O)[O-])c1,–,inconclusive: 33.8%
COC(=O)[C@H](CCSC)NC(=O)Cn1cc(C)c(=O)[nH]c1=O,–,inactive: -9.82%
CC(=O)Oc1c(S(=O)(=O)c2ccc(C)cc2)c(C)nn1C(C)(C)C,"inconclusive: 29.1 µM [cytotoxic, single point]",–
Nc1c(C(=O)Nc2ccccc2)sc2nc3c(c(-c4ccco4)c12)CCC3,"inconclusive: 18.4 µM [cytotoxic, single point]",–
C[C@@H]1CN([C@H](C)CO)S(=O)(=O)c2ccc(Br)cc2O[C@@H]1CN(C)C(=O)Nc1ccc(C(F)(F)F)cc1,"inconclusive: 32.6 µM [cytotoxic, single point]",–
O=C(Nc1ccc(CN2CCOCC2)cc1)c1ccc(-c2cc(Cl)ccc2Cl)o1,"inconclusive: 16.4 µM [cytotoxic, single point]",–
Cc1ccc(CN2CC(C(=O)Nc3ccc(C)c(S(=O)(=O)N4CCCCC4)c3)CC2=O)cc1 (stereo not given),active: 16.4 µM,–
O=C(Nc1ccc(OC(F)F)cc1)Nc1cccc(C(F)(F)F)c1,active: 8.2 µM,–
Cn1c(-c2ccccc2)cc2onc(-c3ccccc3)c2c1=O,–,inactive: 0%
CCOC(=O)c1sc2ccccc2c1S(=O)(=O)Nc1cccc(C(F)(F)F)c1,–,inactive: -13.1%
CC1(C(=O)Nc2cccc(C#N)c2)CCN1C(=O)C1(c2ccccc2)CC1 (stereo not given),–,inactive: 0%
S=C(NC1CCCCC1)N(CCc1nc2ccccc2[nH]1)C1CCCC1,"inconclusive: 23.1 µM [cytotoxic, single point]",–
CC(C)c1nc2ccccc2c2nnc(SCC(=O)NCc3ccco3)n12,"inconclusive: 29.1 µM [cytotoxic, single point]",–
COc1ccc(CN2CCN(Cc3nc4ccccc4s3)CC2CCO)c(C)c1C (stereo not given),"inconclusive: 29.1 µM [cytotoxic, single point]",–
Cc1ccc(C(=O)NCCCNC(=O)COc2ccc(Cl)cc2)cn1,"inconclusive: 1.03 µM [cytotoxic, full curve, poor fit]",–
CCOC(=O)C1CCCN(c2nc3ccccc3nc2C(C#N)C(=O)OCC)C1 (stereo not given),"inconclusive: 29.1 µM [cytotoxic, single point]",–
COc1ccc(C2CC(=O)C=C(NCc3ccccc3)C2)cc1 (stereo not given),"inconclusive: 29.1 µM [cytotoxic, single point]",–

SMILES,Potency,"activity change, negative = cytotoxic"
COc1cccc2c1C(=O)c1c(O)c3c(c(O)c1C2=O)C[C@@](O)(C(=O)CO)C[C@@H]3OC1CC(N)C(O)C(C)O1 (stereo not given in full),"inconclusive: 4.11 µM [cytotoxic, full curve, poor fit]",–
COc1ccc(CNS(=O)(=O)CCNC(=O)c2ccccc2)cc1,–,inactive: -0.548%
O=C(NCCCCc1ccccc1)c1cccc(NC(=O)C2CCCCC2)c1,–,inactive: 0%
COC(=O)CSc1cccc2c1C(=O)CC2c1ccccc1 (stereo not given),–,inactive: 4.25%
COc1ccc(C(NC(=O)C2CCN(CCOc3ccc(Cl)cc3Cl)CC2)c2cccs2)cc1 (stereo not given),"inconclusive: 29.1 µM [cytotoxic, single point]",–
CC(Oc1cccc([N+](=O)[O-])c1)C(=O)NCCC1=CCCCC1 (stereo not given),–,inactive: -11%
COc1ccccc1C(=O)Nc1ccc2c(c1)CN(Cc1cnc(C)s1)CC2,–,inactive: -0.77%
Nc1cccc(-n2nnnc2CN2CCOCC2)c1,–,inactive: 4.11%
CC(=O)Nc1ccc(S(=O)(=O)Nc2ccc3c(c2)OCCO3)cc1Cl,"inconclusive: 2.59 µM [cytotoxic, full curve]",–
Cc1ccc(-c2nc3c(Cl)cc(C(F)(F)F)cn3c2Cc2ccsc2)cc1,"inconclusive: 23.1 µM [cytotoxic, single point]",–
CCCCn1cc(C(=O)c2cc(Br)ccc2O)cc(C#N)c1=O,"inconclusive: 29.1 µM [cytotoxic, single point]",–
CC(=O)Nc1ccc(C(=O)N/N=C/c2ccccc2OCc2ccccc2)cc1,"inconclusive: 29.1 µM [cytotoxic, single point]",–
C#CCOCCOCCOCCNc1nc(N2CCN(C(=O)CCCCCCCCCCNC(=O)[C@H](CO)n3cc(CCCSC)nn3)CC2)nc(N2CCN(C(=O)CCCCCCCCCCNC(=O)[C@H](CCCN=C(N)N)n3cc(C[C@@H](C)CC)nn3)CC2)n1,"inconclusive: 23.1 µM [cytotoxic, partial curve]",–
CC1=C(C(=O)N(C(C)C)C(C)C)CC(CC(=O)NCCc2ccccn2)C(=O)N1CCC1=CCCCC1 (stereo not given),active: 20.6 µM,–
CC(=O)c1c(C)oc2ccc(N(C(=O)Oc3ccccc3)S(=O)(=O)c3ccc(C(C)(C)C)cc3)cc12,"inconclusive: 10.3 µM [cytotoxic, partial curve, poor fit]",–
O=C1N[C@H](Cc2ccccc2)COC(=O)[C@H](Cc2ccc(F)cc2)C/C=C\C[C@H]1CC(=O)N(CCO)Cc1ccccc1,"inconclusive: 32.6 µM [cytotoxic, single point]",–
O=C(C1CCCN(Cc2nc(-c3ccc(Cl)cc3)no2)C1)N1CCOCC1 (stereo not given),"inconclusive: 16.4 µM [cytotoxic, partial curve, poor fit]",–
COc1ccccc1-c1csc2ncnc(Sc3nnnn3C)c12,"inconclusive: 29.1 µM [cytotoxic, single point]",–
O=C1CCC([N+](=O)[O-])C(c2ccccc2F)N1 (stereo not given),–,inconclusive: -5.4%
COc1ccc(Nc2nc(Cl)nc(NCc3ccco3)n2)c(OC)c1,–,inactive: -7.77%
O=C(NN=C1c2ccccc2-c2ccccc21)c1ccccc1,"inconclusive: 18.4 µM [cytotoxic, single point]",–
COCCNC(=O)c1ccc(N2CC3CC(C2)c2cccc(=O)n2C3)c(NC(=O)c2cc(OC)cc(OC)c2)c1 (stereo not given),"inconclusive: 29.1 µM [cytotoxic, single point]",–
Cc1cc(OCC(=O)N2CCc3ccccc3C2)c2c(-c3ccccc3)cc(=O)oc2c1,"inconclusive: 29.1 µM [cytotoxic, single point]",–
O=C(COc1cccnc1[N+](=O)[O-])NCc1ccco1,–,inconclusive: 35.1%

# Full records from above:
# O=C(OCCN=C1NS(=O)(=O)c2ccccc21)c1cccc([N+](=O)[O-])c1 as listed: activity change, negative = cytotoxic: inconclusive: 33.8%
# COc1ccc(CN2CCN(Cc3nc4ccccc4s3)CC2CCO)c(C)c1C (stereo not given) as listed: Potency: inconclusive: 29.1 µM [cytotoxic, single point]
# Cc1ccc(C(=O)NCCCNC(=O)COc2ccc(Cl)cc2)cn1 as listed: Potency: inconclusive: 1.03 µM [cytotoxic, full curve, poor fit]
# CC(=O)c1c(C)oc2ccc(N(C(=O)Oc3ccccc3)S(=O)(=O)c3ccc(C(C)(C)C)cc3)cc12 as listed: Potency: inconclusive: 10.3 µM [cytotoxic, partial curve, poor fit]

# (cont.)

SMILES,Potency,"activity change, negative = cytotoxic"
Cc1cnc2ccc3ccccc3c2c1C,active: 5.17 µM,–
O=C(NN=Cc1ccccc1)NN=Cc1ccccc1,–,inactive: 1.11%
O=Cc1ccc2noc(-c3ccc(Cl)cc3)c2c1,"inconclusive: 11.6 µM [cytotoxic, partial curve]",–
Cc1nc(-c2ccccc2)sc1-c1nc(-c2cccnc2)ncc1S(=O)(=O)c1ccccc1,"inconclusive: 23.1 µM [cytotoxic, single point]",–
CCCOP(=O)(c1ccccc1)c1ccccc1,–,inactive: 0.546%
CCOc1ccc(N2C(=O)S/C(=C\c3cccn3C)C2=O)cc1,"inconclusive: 20.6 µM [cytotoxic, single point]",–
Cc1oc(-c2ccccc2F)nc1CS(=O)(=O)CC(=O)NC1CCCC1,–,inactive: -1.11%
O=C(c1[nH]c(C(F)(F)F)nc1-c1ccccc1)N1CCc2c([nH]c3ccccc23)C1,active: 5.8 µM,–
CCCC(=O)NC(c1ccccc1OC)c1ccc2cccnc2c1O (stereo not given),"inconclusive: 2.91 µM [cytotoxic, full curve, poor fit]",–
Cc1cccc(N2CCN(C(=O)CCC(=O)N3CC(C)Oc4ccccc43)CC2)c1C (stereo not given),"inconclusive: 20.6 µM [cytotoxic, single point]",–
NC[C@@H]1O[C@H](C23CC4CC(CC(C4)C2)C3)Cc2c1ccc(O)c2O,"inconclusive: 29.1 µM [cytotoxic, single point]",–
O=c1nc(N/N=C/c2ccccn2)cn[nH]1,"inconclusive: 23.1 µM [cytotoxic, single point]",–
COc1ccc(-c2cc(NC=O)c3ncc(-c4cccc(OC)c4)n3c2)cc1,active: 6.51 µM,–
Cc1onc(-c2ccccc2Cl)c1C(=O)N1CC(C)CC(C)C1 (stereo not given),–,inactive: -20.7%
CCOc1cccc2sc(Nc3nc4ccc(NC(C)=O)cc4s3)nc12,active: 11.6 µM,–
CCOc1cc(/C=C2/C(=O)ON=C2C)ccc1OCc1ccccc1F,–,inactive: 8.79%
CCn1nnc(-c2ccc(N)cc2)n1,–,inactive: 4.52%
O=C(Nc1nccs1)c1nc(-c2ccccc2)n(-c2ccccc2)n1,–,inactive: -17.6%
Cc1cccc(NC(=O)C2CCN(S(=O)(=O)c3c(C)c(C)cc(C)c3C)CC2)n1,"inconclusive: 23.1 µM [cytotoxic, single point]",–
CCc1ccc(NC(=O)COc2ccc(/C=C(/C#N)c3nc4ccccc4[nH]3)cc2OC)cc1,active: 1.46 µM,–
COC(=O)n1c(SC)nc2ccccc21,"inconclusive: 32.6 µM [cytotoxic, single point]",–
C#CCN(Cc1ccc(OC)cc1)S(=O)(=O)C=C,"inconclusive: 18.4 µM [cytotoxic, single point]",–
